The values below come from article PMC7062751.

The exact form of at least one protein or probe is not confirmed. At least one verdict was read from the data and is not stated in words by the source. Tags and fusion partners may be left off the protein sequences shown.

The data set concerns the target T1, TEX264 (deltaLRR, TEX264WT) (Homo sapiens) (UniProt Q9Y6I9).
T1 sequence (looked up): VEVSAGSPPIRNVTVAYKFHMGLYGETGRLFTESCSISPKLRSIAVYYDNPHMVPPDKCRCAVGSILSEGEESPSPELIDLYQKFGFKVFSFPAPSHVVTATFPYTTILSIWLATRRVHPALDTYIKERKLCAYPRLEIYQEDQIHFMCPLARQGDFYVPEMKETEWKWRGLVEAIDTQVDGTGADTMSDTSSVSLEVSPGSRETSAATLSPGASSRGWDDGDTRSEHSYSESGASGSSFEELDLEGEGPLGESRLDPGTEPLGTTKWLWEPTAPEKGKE
The data set can be described thus: EMSA. Particulars: 150 mM NaCl, 10 mM Tris-HCl pH 7.5, 0.1 mM EDTA, 15% glycerol, 15 min at 37 °C, 0.5% agarose gel in TBE at 4 °C, recombinant protein, residues 34-313, protein details: C-terminal His.

For the sequence “ATTCGATCGGGGCGGGGCGAGC (double strand) [Sp1 consensus probe, double-stranded]”, for the setting “label: 5' IRDye800 on strand 1”, the binding result was “binds”.

Take “ATTCGATCGGGGCGGGGCGAGC [Sp1 consensus probe, single-stranded]”: for the setting “label: 5' IRDye800, single-stranded DNA”, the binding result is reported as “binds”.
